Percent effect of library compounds

The chains behind the UniProt entries cited, without tags or fusion partners. Residues count along the entry.
UniProt P9WFT3, whole entry: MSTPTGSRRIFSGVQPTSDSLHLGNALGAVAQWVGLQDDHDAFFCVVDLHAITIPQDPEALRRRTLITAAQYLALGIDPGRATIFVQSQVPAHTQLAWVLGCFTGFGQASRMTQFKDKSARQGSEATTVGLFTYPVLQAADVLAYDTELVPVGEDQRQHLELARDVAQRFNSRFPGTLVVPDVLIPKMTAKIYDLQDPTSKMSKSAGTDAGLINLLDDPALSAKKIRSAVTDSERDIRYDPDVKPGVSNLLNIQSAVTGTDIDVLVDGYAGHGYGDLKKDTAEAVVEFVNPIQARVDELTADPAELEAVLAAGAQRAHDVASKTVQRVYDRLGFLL
UniProt Q4DA54, 1-478: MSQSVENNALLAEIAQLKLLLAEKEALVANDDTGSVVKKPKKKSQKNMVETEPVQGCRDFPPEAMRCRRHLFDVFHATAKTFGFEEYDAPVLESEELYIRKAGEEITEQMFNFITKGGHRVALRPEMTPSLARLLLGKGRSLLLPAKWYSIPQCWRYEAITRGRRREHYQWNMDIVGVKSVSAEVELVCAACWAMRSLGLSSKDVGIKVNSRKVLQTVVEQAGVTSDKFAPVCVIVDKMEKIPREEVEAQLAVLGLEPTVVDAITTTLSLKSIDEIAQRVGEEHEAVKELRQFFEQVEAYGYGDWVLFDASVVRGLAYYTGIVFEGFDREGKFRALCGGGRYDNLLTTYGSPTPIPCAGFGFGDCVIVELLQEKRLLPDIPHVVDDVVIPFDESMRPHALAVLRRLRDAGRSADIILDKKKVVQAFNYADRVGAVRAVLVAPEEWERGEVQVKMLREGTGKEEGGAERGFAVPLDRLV

MtTrpRS: 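Enzyme assay of tryptophanyl-tRNA synthetase; the read-out is not stated. Target: Tryptophan-tRNA ligase, Mycobacterium tuberculosis (UniProt P9WFT3). Compounds at 10 µM. Higher most likely means stronger inhibition; the record gives no direction and few retests gave an IC50. About 65,000 compounds were tested under these conditions; 0.098% (about 64) showed 50% or more at least once.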
Leishmania in macrophages: 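Cell assay of Leishmania donovani living inside macrophages; the read-out is not stated. Compounds at 30 µM. Direction is inferred from retests: higher values go with stronger inhibition. Size under these conditions: about 69,000 compounds, about 1,000 of them at 50% or above in at least one test.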
TcHisRS: 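Histidine-tRNA ligase, Trypanosoma cruzi CL Brener (UniProt Q4DA54). Enzyme assay of histidyl-tRNA synthetase; the read-out is not stated. Tested at 30 µM. Direction is inferred from retests: higher values go with stronger inhibition. About 69,000 compounds were tested under these conditions; 0.045% (about 31) showed 50% or more at least once.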

The filed quantity is “Percent Effect” (%). The record does not define 0% and 100%; most values in the screen are far below 50% and negative numbers occur (in some assays of this library far below -100). Compounds were drawn at random from those tested, without regard to their results. Two or more numbers in one place are separate tests of the same structure; such repeats can differ widely.

* O=C(NC1CC1)N1C[C@H]2CN(c3ccccc3)C(=O)[C@H]2C1 | MtTrpRS: -7.994%; TcHisRS: 5.825%
* O=C1N(c2cccc(F)c2)Cc2nc(=O)[nH]n21 | MtTrpRS: -3.141%; Leishmania in macrophages: -1.204%; TcHisRS: 1.136%
* CCNC(=O)[C@@H]1C[C@H](N)CN1C(=O)c1c[nH]c2ccccc12 | MtTrpRS: 4.898%; Leishmania in macrophages: -3.788%; TcHisRS: -4.464%
* CC(NC(=O)NC1CCN(CC2CCCC2)CC1)c1nccs1 (stereo not given) | MtTrpRS: -0.6796%; Leishmania in macrophages: 22.96%; TcHisRS: 7.843%
* CCn1cnnc1CN(C)C(=O)c1cc(COc2cccc(F)c2)[nH]n1 | MtTrpRS: -3.372%; Leishmania in macrophages: 11.74%; TcHisRS: 1.235%
* O=C(CCCn1ccnc1)NC1CCCN(c2ccccc2Cl)C1 (stereo not given) | MtTrpRS: -0.7651%; Leishmania in macrophages: -14.7%; TcHisRS: 5.473%
* O=C(C1CCOC1)N1C[C@H]2CN(Cc3ccccn3)C[C@H]2C1 (stereo not given in full) | MtTrpRS: 1.133%; TcHisRS: 1.657%
* O=C(Cc1ccc(F)cc1)NCCNc1cc(N2CCCC2)cnn1 | MtTrpRS: 0.3163%; Leishmania in macrophages: -16.37%; TcHisRS: 8%
* Cc1nc(C)n(C2CCCN(C(=O)CCOC(C)C)C2)n1 (stereo not given) | MtTrpRS: 12.17%; Leishmania in macrophages: -28.9%; TcHisRS: 1.724%
* CC(Cn1ccnc1)NC(=O)C1(c2ccc(F)cc2)CCCC1 (stereo not given) | MtTrpRS: -8.678%; Leishmania in macrophages: 8.912%; TcHisRS: 2.924%
* [H][C@]12CC[C@@]3(N=C(CC)NC3=O)[C@@]1([H])CN(C(=O)Nc1ccc(F)cc1)C2 | Leishmania in macrophages: 14.59%
* COCCC(=O)N1CCCC(CCC(=O)NCc2cccc(OC)c2)C1 (stereo not given) | MtTrpRS: -0.9524%; Leishmania in macrophages: 9.299%; TcHisRS: 0%
* CCC(NS(=O)(=O)c1ccc(C(=O)NC2CC2)cc1)c1cnn(C)c1 (stereo not given) | MtTrpRS: -0.09141%; Leishmania in macrophages: 6.086%; TcHisRS: 3.448%
* N#CCc1ccc(NC(=O)N[C@H](CO)Cc2ccc(O)cc2)cc1 | MtTrpRS: 0.7401%; Leishmania in macrophages: 4.53%; TcHisRS: -3.704%
* COc1c(CNC(c2ccccc2)c2nccn2C)c(C)nn1C (stereo not given) | MtTrpRS: -1.569%; Leishmania in macrophages: 20.52%; TcHisRS: 3.55%
* O=c1c2ccc(Cl)cc2ncn1CCCN1CCCCC1CO (stereo not given) | MtTrpRS: -0.3215%; Leishmania in macrophages: 23.96%; TcHisRS: 10.89%
* O=C(CCc1cc(Br)cs1)NCCCn1ccnc1 | MtTrpRS: -0.2865%; Leishmania in macrophages: 18.2%; TcHisRS: 0%
* O=S(=O)(c1ccccc1)N1CCCC1c1cc[nH]n1 (stereo not given) | Leishmania in macrophages: 9.446% & 13.06%; TcHisRS: -1.099%
* O=C(CCn1nc(C(F)(F)F)c(Cl)c1C1CC1)NN1CCOCC1 | MtTrpRS: 2.441%; Leishmania in macrophages: 17.5%; TcHisRS: 6.211%
* NC(=O)c1ccc(NC(=O)N2CCN(c3cccs3)CC2)c(F)c1 | MtTrpRS: -0.9031%; Leishmania in macrophages: 29.36%; TcHisRS: 4.762%
* Cc1cc(C)c(CNC(=O)NCC(O)COc2ccccc2)c(=O)[nH]1 (stereo not given) | MtTrpRS: -2.827%; Leishmania in macrophages: -5.596%; TcHisRS: 3.788%
* CC(=O)NCc1cncc(C2CCCN2C2CCOCC2)n1 (stereo not given) | MtTrpRS: -5.114%; Leishmania in macrophages: 36.99%; TcHisRS: 5.303%
* COc1cc(C2(C(=O)NC3CCN(C4CC4)CC3)CC2)ccc1C | MtTrpRS: -0.6861%; Leishmania in macrophages: 27.46%; TcHisRS: 2.222%
* CCn1cc(S(=O)(=O)NC2CCCN(CCCc3ccccc3)C2)cn1 (stereo not given) | MtTrpRS: -8.922%; Leishmania in macrophages: -0.5973%; TcHisRS: 7.027%
* CCN1C(=O)CC[C@@H]2[C@H]1CCN2S(=O)(=O)Cc1ccc(C)cc1 | MtTrpRS: -1.652%; TcHisRS: 1.754%
* CCN(C(=O)CCc1ccccc1)C1CC(=O)NC1=O (stereo not given) | MtTrpRS: -4.863%; Leishmania in macrophages: -9.135%; TcHisRS: 10.5%
* CC(C)(C(=O)NCC1CCN(Cc2ncc[nH]2)C1)c1ccccc1 (stereo not given) | MtTrpRS: 3.661%; Leishmania in macrophages: 3.848%; TcHisRS: 2.146%
* CNC(=O)c1ccc(C2CN(C(=O)c3cncs3)CCO2)nc1 (stereo not given) | MtTrpRS: 2.425%; Leishmania in macrophages: 17.98%; TcHisRS: 3.784%
* CCN1CCN(C(=O)c2cnn(-c3ccccc3Cl)c2)CC1 | MtTrpRS: 1.8%; Leishmania in macrophages: 1.622%; TcHisRS: 2.256%
* CC(C)c1nc(CCn2cncn2)n(-c2ccc3c(c2)OCCO3)n1 | MtTrpRS: 13.06%; Leishmania in macrophages: 10.41%; TcHisRS: 2.051%
* CC(C)c1nnc(CNCC2CCCN2c2cccnn2)o1 (stereo not given) | MtTrpRS: -2.424%; Leishmania in macrophages: 17.66%; TcHisRS: 2.041%
* CC(=O)Nc1ncc(S(=O)(=O)N2CCN(C3CCCCC3)CC2)s1 | MtTrpRS: 1.538%; Leishmania in macrophages: -1.593%; TcHisRS: 1.235%
* Cc1nc(C2CCCN2Cc2nnc(Cc3ccccc3)o2)no1 (stereo not given) | MtTrpRS: 1.546%; Leishmania in macrophages: -1.346%; TcHisRS: -0.8403%
* CN1CCCC1CNC(=O)CCOc1ccc(Cl)cc1 (stereo not given) | MtTrpRS: 1.193%; Leishmania in macrophages: 19.05%; TcHisRS: 5.325%

For reference, 2 entries once more:

{"smiles": "N#CCc1ccc(NC(=O)N[C@H](CO)Cc2ccc(O)cc2)cc1", "MtTrpRS": 0.7401, "Leishmania in macrophages": 4.53, "TcHisRS": -3.704}
{"smiles": "COCCC(=O)N1CCCC(CCC(=O)NCc2cccc(OC)c2)C1", "stereo": "stereo not given", "MtTrpRS": -0.9524, "Leishmania in macrophages": 9.299, "TcHisRS": 0}

Source: ChEMBL document CHEMBL3988442, “University of Dundee, Small-Polar-MMV Screening Library” (2021).